From patent US8568699B2, “Soft anticholinergic zwitterions” (priority 2005, dated 2013)

Test system: muscarinic M3 cholinoceptors (guinea pig tracheal rings)
Format: cell-based
Settings: antagonism against carbachol, isolated guinea pig tracheal rings

SMILES: CN1[C@@H]2CC[C@H]1C[C@@H](OC(=O)C(CO)c1ccccc1)C2 (stereo partly shown) [Atropine]
- Slope ± S.E. (Schild plot): 0.98 ± 0.02^a

Marks after values point to notes of the source that are not given here.
